Test results published in the supplement of paper PMC9254222.
Over roughly 1,100 compounds, “Wnt reporter firefly/Renilla luciferase ratio relative to plate median” has its median near 1.1; the highest 2% begin near 1.6. This is a selection; strong and weak results do not stand in their true shares.

Tested on: HEK293T (UBE3A T485A transfected, BAR Wnt reporter)
Assay: Wnt reporter firefly/Renilla luciferase ratio relative to plate median (fold (linear ratio)); higher = more Wnt/beta-catenin reporter activation
Details: 24 h
Summary of the method: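 Wnt activity (firefly/Renilla ratio) and cell health (raw Renilla) were read with Dual-Glo luciferase and median-centred plate by plate. HEK293T cells, at 4500 cells/well in white 384-well plates with DMEM plus 10% FBS at 37°C and 5% CO2, carried a transfected BAR firefly luciferase Wnt reporter, TK-Renilla and an expression plasmid. The chemicals were applied by robot at 0.01–100 uM for 24 h, beginning four hours after transfection, and results were averaged across four biological replicates.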

Compound | Wnt reporter firefly/Renilla luciferase ratio (concentration: 0.1 uM) | Wnt reporter firefly/Renilla luciferase ratio (concentration: 1 uM) | Wnt reporter firefly/Renilla luciferase ratio (concentration: 10 uM) | Wnt reporter firefly/Renilla luciferase ratio (concentration: 100 uM) | Wnt reporter firefly/Renilla luciferase ratio (concentration: 0.01 uM)
CC(C)=CCC/C(C)=C/CO [Geraniol] | 1.1 | 1.26 | 1.15 | 1.75 | –
O=C(O)Cc1cc(I)c(Oc2cc(I)c(O)c(I)c2)c(I)c1 [Tetrac] | 1.24 | 0.987 | 1.02 | 1.49 | –
CC(=O)S[C@@H]1CC2=CC(=O)CC[C@]2(C)[C@H]2CC[C@@]3(C)[C@@H](CC[C@@]34CCC(=O)O4)[C@H]12 [Spironolactone] | 0.996 | 1.16 | 0.759 | 0.0625 | –
O=C(Nc1ccc([N+](=O)[O-])cc1Cl)c1cc(Cl)ccc1O [Niclosamide] | 1.01 | 0.197 | – | – | 0.996
CCCCCCCCCCCCCCCC [Hexadecane] | 1.02 | 1.02 | 1.19 | 1.33 | –
CC[C@H](c1ccc(O)cc1)[C@@H](CC)c1ccc(O)cc1 [meso-Hexestrol] | 0.858 | 1.05 | 0.711 | 0.0535 | –
Cc1ncc(CO)c(CO)c1O [Pyridoxine] | 0.962 | 0.966 | 1.34 | 0.979 | –
Cl.Nc1ccn([C@@H]2O[C@H](CO)[C@@H](O)[C@@H]2O)c(=O)n1 [Cytarabine hydrochloride] | 1.1 | 0.941 | 0.171 | 0.125 | –
CCCCCOC(C)=O [Pentyl acetate] | – | – | – | 1.61 | –
Cl.Cn1c(=O)cc(Oc2ccc(F)cc2F)c2cnc(NCC(C)(C)O)nc21 | 0.965 | 0.743 | 0.663 | 0.361 | –
CCN(CC)CCNc1ccc(CNC=O)c2sc3ccc(OC)cc3c(=O)c12 | 1.79 | 0.887 | 0.373 | – | –
CC(=O)OC/C=C(\C)CCC=C(C)C [Geranyl acetate] | 1.1 | 0.97 | 1.27 | 1.23 | –
COCC(C)O (stereo not given) [1-Methoxy-2-propanol] | 0.916 | 1.03 | 0.962 | 1.13 | –
COc1ccc(C(=O)Nc2nc3ccccc3c(NCc3ccccc3)c2C#N)cc1 | 1.27 | 1.14 | 0.744 | 0.357 | –
CNC(C)=O [N-Methylacetamide] | 1.35 | 0.972 | 1.2 | 1.18 | –

Entries of single compounds, looked up by structure. Order of values: Wnt reporter firefly/Renilla luciferase ratio (concentration: 0.1 uM)	Wnt reporter firefly/Renilla luciferase ratio (concentration: 1 uM)	Wnt reporter firefly/Renilla luciferase ratio (concentration: 10 uM)	Wnt reporter firefly/Renilla luciferase ratio (concentration: 100 uM)	Wnt reporter firefly/Renilla luciferase ratio (concentration: 0.01 uM)
COCC(C)O (stereo not given) [1-Methoxy-2-propanol] as listed: 0.916	1.03	0.962	1.13	–
CC(=O)OC/C=C(\C)CCC=C(C)C [Geranyl acetate] as listed: 1.1	0.97	1.27	1.23	–
